What all share (experiment): co-sedimentation
Assay [1] has as its target T1, GR10, synthetic poly-glycine-arginine 10-mer dipeptide repeat protein with C-terminal lysine and cysteine.
T1 sequence (peptide): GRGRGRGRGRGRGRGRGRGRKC

Chains of the proteins cited; added tags and fusions are not shown.
UniProt O00571: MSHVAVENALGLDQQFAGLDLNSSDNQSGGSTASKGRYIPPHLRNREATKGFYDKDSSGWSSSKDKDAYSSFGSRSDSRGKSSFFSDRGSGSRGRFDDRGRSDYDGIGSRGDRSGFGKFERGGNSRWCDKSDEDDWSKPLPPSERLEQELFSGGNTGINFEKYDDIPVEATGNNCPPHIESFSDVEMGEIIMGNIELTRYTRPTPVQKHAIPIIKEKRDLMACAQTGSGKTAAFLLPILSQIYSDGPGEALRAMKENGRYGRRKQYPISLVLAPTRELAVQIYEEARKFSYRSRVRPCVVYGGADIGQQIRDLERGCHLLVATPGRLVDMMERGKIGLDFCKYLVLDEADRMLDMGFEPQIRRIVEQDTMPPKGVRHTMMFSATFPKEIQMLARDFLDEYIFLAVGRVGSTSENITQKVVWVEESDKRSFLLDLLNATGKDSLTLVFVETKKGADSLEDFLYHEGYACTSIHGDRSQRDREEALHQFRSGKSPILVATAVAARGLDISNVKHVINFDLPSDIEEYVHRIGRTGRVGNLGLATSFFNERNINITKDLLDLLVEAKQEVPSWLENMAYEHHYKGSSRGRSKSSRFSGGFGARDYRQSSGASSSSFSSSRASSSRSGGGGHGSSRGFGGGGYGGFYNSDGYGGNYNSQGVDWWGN
UniProt P35637: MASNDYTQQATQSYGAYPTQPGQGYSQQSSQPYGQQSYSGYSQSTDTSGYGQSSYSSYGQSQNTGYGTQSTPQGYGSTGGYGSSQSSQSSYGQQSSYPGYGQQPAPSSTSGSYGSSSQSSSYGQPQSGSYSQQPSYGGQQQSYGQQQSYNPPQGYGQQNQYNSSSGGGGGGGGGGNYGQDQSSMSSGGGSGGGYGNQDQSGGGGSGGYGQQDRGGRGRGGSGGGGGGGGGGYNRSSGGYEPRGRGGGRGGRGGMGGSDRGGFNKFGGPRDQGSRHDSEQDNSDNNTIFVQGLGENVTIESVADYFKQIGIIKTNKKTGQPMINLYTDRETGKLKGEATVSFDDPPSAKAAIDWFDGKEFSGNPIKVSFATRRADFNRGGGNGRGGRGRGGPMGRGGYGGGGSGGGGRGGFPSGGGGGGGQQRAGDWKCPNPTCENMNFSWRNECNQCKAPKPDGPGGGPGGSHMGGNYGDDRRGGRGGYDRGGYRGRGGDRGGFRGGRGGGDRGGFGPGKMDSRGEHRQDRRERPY
UniProt P18754: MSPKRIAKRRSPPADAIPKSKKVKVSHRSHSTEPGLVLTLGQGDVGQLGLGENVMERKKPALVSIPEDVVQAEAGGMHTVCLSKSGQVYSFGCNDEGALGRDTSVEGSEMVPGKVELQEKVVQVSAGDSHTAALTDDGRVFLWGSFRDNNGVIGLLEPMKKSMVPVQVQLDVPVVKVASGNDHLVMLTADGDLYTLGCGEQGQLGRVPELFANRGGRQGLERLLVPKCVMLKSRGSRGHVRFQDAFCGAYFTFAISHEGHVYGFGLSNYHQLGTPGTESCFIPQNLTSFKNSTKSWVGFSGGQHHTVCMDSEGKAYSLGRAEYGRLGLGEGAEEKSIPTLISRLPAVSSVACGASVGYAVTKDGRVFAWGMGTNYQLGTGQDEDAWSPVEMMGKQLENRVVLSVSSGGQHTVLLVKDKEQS
UniProt Q13148: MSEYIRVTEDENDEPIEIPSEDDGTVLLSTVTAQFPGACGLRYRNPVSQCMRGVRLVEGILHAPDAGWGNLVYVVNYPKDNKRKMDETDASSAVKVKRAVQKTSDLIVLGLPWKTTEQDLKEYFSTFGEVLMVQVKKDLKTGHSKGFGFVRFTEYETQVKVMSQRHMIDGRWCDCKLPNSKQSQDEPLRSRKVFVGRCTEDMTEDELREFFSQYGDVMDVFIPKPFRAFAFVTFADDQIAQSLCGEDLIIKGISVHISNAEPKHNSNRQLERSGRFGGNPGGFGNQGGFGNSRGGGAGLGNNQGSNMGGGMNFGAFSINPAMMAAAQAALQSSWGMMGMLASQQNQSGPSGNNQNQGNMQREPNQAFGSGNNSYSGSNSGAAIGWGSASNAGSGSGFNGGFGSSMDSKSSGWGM
UniProt Q92973: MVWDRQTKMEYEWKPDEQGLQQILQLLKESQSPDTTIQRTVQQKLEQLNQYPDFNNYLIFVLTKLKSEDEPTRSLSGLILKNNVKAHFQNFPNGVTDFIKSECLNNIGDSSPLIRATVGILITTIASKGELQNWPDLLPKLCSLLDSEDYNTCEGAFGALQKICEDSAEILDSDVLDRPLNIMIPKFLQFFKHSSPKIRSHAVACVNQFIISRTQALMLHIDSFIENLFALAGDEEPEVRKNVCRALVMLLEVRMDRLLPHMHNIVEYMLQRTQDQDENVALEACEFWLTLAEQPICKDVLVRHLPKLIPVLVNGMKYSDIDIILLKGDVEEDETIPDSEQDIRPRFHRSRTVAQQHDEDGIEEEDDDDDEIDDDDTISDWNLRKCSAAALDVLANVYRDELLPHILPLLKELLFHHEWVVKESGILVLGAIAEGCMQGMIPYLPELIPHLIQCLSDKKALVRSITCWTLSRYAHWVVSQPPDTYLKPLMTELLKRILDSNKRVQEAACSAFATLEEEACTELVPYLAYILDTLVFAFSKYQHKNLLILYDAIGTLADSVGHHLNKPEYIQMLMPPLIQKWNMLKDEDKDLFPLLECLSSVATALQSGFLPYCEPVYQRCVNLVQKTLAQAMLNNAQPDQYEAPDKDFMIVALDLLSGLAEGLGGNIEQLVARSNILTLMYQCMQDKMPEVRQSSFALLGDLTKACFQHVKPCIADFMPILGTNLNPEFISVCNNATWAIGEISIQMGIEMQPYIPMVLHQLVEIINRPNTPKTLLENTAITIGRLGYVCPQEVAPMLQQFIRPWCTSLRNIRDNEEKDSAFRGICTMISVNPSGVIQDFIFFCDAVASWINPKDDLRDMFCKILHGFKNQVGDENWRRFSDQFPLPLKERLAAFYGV
UniProt Q14974: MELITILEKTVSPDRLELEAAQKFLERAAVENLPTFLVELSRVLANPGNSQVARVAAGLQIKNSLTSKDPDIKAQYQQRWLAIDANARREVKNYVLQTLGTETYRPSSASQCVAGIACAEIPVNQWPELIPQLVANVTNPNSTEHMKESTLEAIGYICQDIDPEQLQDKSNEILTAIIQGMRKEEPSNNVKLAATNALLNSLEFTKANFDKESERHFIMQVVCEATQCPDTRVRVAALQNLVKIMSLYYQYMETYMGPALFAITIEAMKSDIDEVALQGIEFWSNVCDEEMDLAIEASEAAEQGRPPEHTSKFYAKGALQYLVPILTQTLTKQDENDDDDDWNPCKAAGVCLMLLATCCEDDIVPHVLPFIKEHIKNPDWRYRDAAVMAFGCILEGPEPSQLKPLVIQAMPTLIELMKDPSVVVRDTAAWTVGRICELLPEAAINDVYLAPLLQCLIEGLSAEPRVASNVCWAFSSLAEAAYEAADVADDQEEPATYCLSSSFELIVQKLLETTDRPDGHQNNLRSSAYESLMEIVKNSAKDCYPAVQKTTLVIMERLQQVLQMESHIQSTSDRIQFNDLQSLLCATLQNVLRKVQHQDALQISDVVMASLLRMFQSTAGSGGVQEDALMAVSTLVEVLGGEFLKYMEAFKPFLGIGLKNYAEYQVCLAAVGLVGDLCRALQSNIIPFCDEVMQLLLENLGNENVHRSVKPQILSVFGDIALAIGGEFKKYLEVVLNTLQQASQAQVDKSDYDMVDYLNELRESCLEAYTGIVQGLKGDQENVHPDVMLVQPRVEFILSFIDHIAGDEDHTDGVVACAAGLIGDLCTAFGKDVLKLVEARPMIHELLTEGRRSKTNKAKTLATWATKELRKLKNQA
UniProt P37198: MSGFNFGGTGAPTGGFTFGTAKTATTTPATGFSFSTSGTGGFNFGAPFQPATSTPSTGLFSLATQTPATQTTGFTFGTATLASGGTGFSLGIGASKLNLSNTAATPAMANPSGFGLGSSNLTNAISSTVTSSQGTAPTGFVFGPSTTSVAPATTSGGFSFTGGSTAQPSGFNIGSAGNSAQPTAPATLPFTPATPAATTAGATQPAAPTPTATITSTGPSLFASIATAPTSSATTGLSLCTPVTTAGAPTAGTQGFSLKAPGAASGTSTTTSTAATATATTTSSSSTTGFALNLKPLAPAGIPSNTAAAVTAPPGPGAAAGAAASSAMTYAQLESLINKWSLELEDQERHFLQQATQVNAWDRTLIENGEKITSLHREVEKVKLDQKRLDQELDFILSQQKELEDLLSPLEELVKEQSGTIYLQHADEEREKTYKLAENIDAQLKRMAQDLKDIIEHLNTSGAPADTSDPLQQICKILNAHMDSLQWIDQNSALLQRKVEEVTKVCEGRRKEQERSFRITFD

Assay [2] concerns the target T2, PR10, synthetic poly-proline-arginine 10-mer dipeptide repeat protein with C-terminal lysine and cysteine.
T2 sequence (peptide): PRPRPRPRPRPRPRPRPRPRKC

The target in assay [3] is T1, GR10, synthetic poly-glycine-arginine 10-mer dipeptide repeat protein with C-terminal lysine and cysteine. The source holds these as a separate data set.
The target of assay [4] is T2, PR10, synthetic poly-proline-arginine 10-mer dipeptide repeat protein with C-terminal lysine and cysteine. This is another data set of the same source.

Read-outs that look alike come from different tables or passages of the source. These are yes or no findings as the source states them, for the method shown. In cells and extracts the contact can be indirect. Some entries that bind do so weakly or less than the wild type.

Take “ATP-dependent RNA helicase DDX3X, endogenous in HEK cell lysate (from UniProt O00571 1-662)”: the binding entry in assay [1] and in assay [2] was “binds” in each case.
For the substance “FUS, endogenous in HEK cell lysate (from UniProt P35637 1-526)”, the binding result in assay [1], in assay [2], in assay [3] and in assay [4] was “binds” in each case.
As for “RCC1, endogenous in HEK cell lysate (from UniProt P18754 1-421)”, the binding entry in assay [1], in assay [2], in assay [3] and in assay [4] was “no binding” in each case.
In the case of “TDP-43, endogenous in HEK cell lysate (from UniProt Q13148 1-414)”, the binding entry in assay [1], in assay [2], in assay [3] and in assay [4] was “binds” in each case.
Take “TNPO1, endogenous in HEK cell lysate (from UniProt Q92973 1-898)”: the binding entry in assay [1] and in assay [2] was “binds” throughout.
As to “importin β, endogenous in HEK cell lysate (from UniProt Q14974 1-876)”, the binding entry in assay [1] and in assay [2] was “binds” throughout.
In the case of “nucleoporin 62, endogenous in HEK cell lysate (from UniProt P37198 1-522)”, the binding result in assay [1] and in assay [2] was “binds” each time.

(Values after article doi:10.1101/787473.)
